Data source: PubChem BioAssay AID1224830 (NIAID, 2016)
In all, the deposit lists about 18,000 reagents; below is a random part of them. About 2,900 of them (16%) count as active. 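Calls are made per well; low scores hint the gene aids the LPS response, high scores that it dampens it.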 Repeated entries: four replicate wells of each siRNA pool. Reagent sequences are not shown.

- Purpose: 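Regulators of TLR4 signalling towards TNF-alpha in macrophage-like cells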 (primary screen)
- Cell system: human THP-1 monocytic leukaemia cells, TNF dual-luciferase reporter clone, PMA-differentiated to macrophage-like cells
- Reagent: siRNA pool against human genes, 50 nM
- Duration: LPS for 4 h, given about 3 days after siRNA transfection
- Conditions: bacterial LPS (TLR4 ligand), 10 ng/ml
- Detection: 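Ratio of firefly to renilla light, scaled to the plate median and expressed as a robust z-score per replicate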
- Scale: TNF reporter robust z-score: higher = stronger TNF reporter response to LPS
- Rule for the call: 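Each well counts as active if its z-score is over 2.8 or under -1.5; controls are left without a call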

| target | TNF reporter robust z-score | activity call |
| --- | --- | --- |
| SHC3 (GeneID 53358) | -1.34 | inactive |
| SHC3 (GeneID 53358) | -0.55 | inactive |
| SHC3 (GeneID 53358) | -0.63 | inactive |
| SHC3 (GeneID 53358) | -0.48 | inactive |
| CWF19L2 (GeneID 143884) | -0.87 | inactive |
| CWF19L2 (GeneID 143884) | -0.68 | inactive |
| CWF19L2 (GeneID 143884) | 1.63 | inactive |
| CWF19L2 (GeneID 143884) | 0.38 | inactive |
| SNX9 (GeneID 51429) | -2.24 | active |
| SNX9 (GeneID 51429) | -2.18 | active |
| SNX9 (GeneID 51429) | -1.7 | active |
| SNX9 (GeneID 51429) | -1.14 | inactive |
| RANBP3L (GeneID 202151) | 1.88 | inactive |
| RANBP3L (GeneID 202151) | 0.96 | inactive |
| RANBP3L (GeneID 202151) | 2.03 | inactive |
| RANBP3L (GeneID 202151) | 1.79 | inactive |
| TMEM101 (GeneID 84336) | -0.44 | inactive |
| TMEM101 (GeneID 84336) | -0.82 | inactive |
| TMEM101 (GeneID 84336) | -0.93 | inactive |
| TMEM101 (GeneID 84336) | -1.42 | inactive |
| PDIA5 (GeneID 10954) | -1.29 | inactive |
| PDIA5 (GeneID 10954) | -0.85 | inactive |
| PDIA5 (GeneID 10954) | -0.8 | inactive |
| PDIA5 (GeneID 10954) | -0.11 | inactive |
| HOXA1 (GeneID 3198) | 0.03 | inactive |
| HOXA1 (GeneID 3198) | -1.32 | inactive |
| HOXA1 (GeneID 3198) | -1.46 | inactive |
| HOXA1 (GeneID 3198) | -1.25 | inactive |
| GPAT4 (GeneID 137964) | 1.31 | inactive |
| GPAT4 (GeneID 137964) | -0.02 | inactive |
| GPAT4 (GeneID 137964) | 0.23 | inactive |
| GPAT4 (GeneID 137964) | -0.37 | inactive |
| RNF20 (GeneID 56254) | 1.11 | inactive |
| RNF20 (GeneID 56254) | -0.13 | inactive |
| RNF20 (GeneID 56254) | 1.31 | inactive |
| RNF20 (GeneID 56254) | 1.07 | inactive |
| RRP1B (GeneID 23076) | -0.32 | inactive |
| RRP1B (GeneID 23076) | -0.43 | inactive |
| RRP1B (GeneID 23076) | -0.04 | inactive |
| RRP1B (GeneID 23076) | -0.24 | inactive |
| FIRRM (GeneID 55732) | 0.47 | inactive |
| FIRRM (GeneID 55732) | 0.71 | inactive |
| FIRRM (GeneID 55732) | -0.07 | inactive |
| FIRRM (GeneID 55732) | -0.49 | inactive |
| TNFRSF10A (GeneID 8797) | -0.2 | inactive |
| TNFRSF10A (GeneID 8797) | -0.07 | inactive |
| TNFRSF10A (GeneID 8797) | -1.36 | inactive |
| TNFRSF10A (GeneID 8797) | -0.55 | inactive |

5 entries from above, reformatted:
SNX9 (GeneID 51429)
- TNF reporter robust z-score: -1.7
- activity call: active

SNX9 (GeneID 51429)
- TNF reporter robust z-score: -1.14
- activity call: inactive

RANBP3L (GeneID 202151)
- TNF reporter robust z-score: 1.88
- activity call: inactive

RANBP3L (GeneID 202151)
- TNF reporter robust z-score: 0.96
- activity call: inactive

RANBP3L (GeneID 202151)
- TNF reporter robust z-score: 2.03
- activity call: inactive
